For assay [1], the target named is T1, Twin-Strep-tag-Syntaxin11 (UniProt O75558).
T1 sequence: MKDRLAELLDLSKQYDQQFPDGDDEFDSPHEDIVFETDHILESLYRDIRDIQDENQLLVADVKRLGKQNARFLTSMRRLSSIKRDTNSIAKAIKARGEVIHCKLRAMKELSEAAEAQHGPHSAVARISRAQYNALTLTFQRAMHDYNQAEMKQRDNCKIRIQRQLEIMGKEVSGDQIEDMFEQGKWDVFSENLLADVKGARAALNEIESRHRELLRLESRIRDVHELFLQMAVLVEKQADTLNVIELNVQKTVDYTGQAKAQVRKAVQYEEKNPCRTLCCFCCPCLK
Nature of the assay: pull-down; Twin-Strep-tag pulldown: 500 ug cleared lysate of transfected primary human CD8+ T cells on Strep-Tactin-Sepharose, 1.5 h, 4 C; lysis and wash buffer 50 mM Tris pH 7.4, 300 mM NaCl, 0.5% Triton X-100; bound proteins detected by Western blot. (In general: A western blot detects proteins with antibodies after separation by electrophoresis.)

Amino acid sequences for entries named in this document (tags omitted).
UniProt P51809: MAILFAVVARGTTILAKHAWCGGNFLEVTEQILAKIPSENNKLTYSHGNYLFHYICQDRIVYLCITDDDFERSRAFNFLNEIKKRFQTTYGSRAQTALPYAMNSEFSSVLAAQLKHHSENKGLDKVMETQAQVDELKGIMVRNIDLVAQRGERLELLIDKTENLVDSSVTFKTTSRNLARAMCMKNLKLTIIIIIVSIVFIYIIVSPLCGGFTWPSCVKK
UniProt P63027: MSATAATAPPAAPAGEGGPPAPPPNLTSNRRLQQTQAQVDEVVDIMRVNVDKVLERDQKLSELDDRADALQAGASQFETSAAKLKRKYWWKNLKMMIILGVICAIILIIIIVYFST

Assay [2] concerns the target VAMP7-Flag-Twin-Strep-tag (UniProt P51809). The description is as above.

No constants are given. Whether binding was seen depends on the method and setting. Binding seen in cells or lysates may run through a third protein. Some entries that bind do so weakly or less than the wild type. For some assays here: Sequences can lack the tags named with a protein.

Consider VAMP2 (from UniProt P63027 1-116), for which the binding result in assay [1] is reported as “no binding”.

B1: Syntaxin11 (protein, UniProt O75558 1-287)
chain: T1 sequence
As for B1, in assay [2], the binding entry was “binds”.

These data come from PMC6692471.
